Assay results: the supplement of paper PMC12889115
The list shows a part of the results. These are raw signals, not scaled to a control.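 First-pass screen: polymyxin B was added at a level that permeabilizes the Salmonella outer membrane while sparing the inner membrane. DMSO wells, with and without polymyxin B, defined maximum growth. Because plates differed from one another, each plate's data were ranked separately and the compounds with the lowest OD600 were carried forward as hits.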

System: Salmonella enterica serovar Typhimurium SL1344
Assay: bacterial growth OD600 after 18 h with compound and polymyxin B; higher = more bacterial growth (less inhibition)
Conditions: 50 µM, Mueller-Hinton broth

SMILES	bacterial growth OD600 (polymyxin B 1 µg/mL)	bacterial growth OD600 (polymyxin B 0.75 µg/mL)
O=C(Nc1ccnn1C1CCN(C(=O)CCn2cnc3ccccc32)CC1)C1CC1	0.996	
CN(Cc1ccccc1)Cc1cc(C(=O)NCc2cccc(Cl)c2)no1	0.89	
Cc1ccc(CN(C)c2ccc(C(=O)NCc3noc(C(C)C)n3)cn2)o1	1.29	
COc1cc2c(cc1CN1CC[C@@H](N3CCN(C)CC3)[C@H](O)C1)OCO2	1.09	
CC(NC(=O)CCc1nnc(-c2ccc3c(c2)OCO3)o1)c1ccc(Cl)cc1 (stereo unspecified)	0.767	
O=C(CCc1cn2ccccc2n1)NC1CCCN(CCc2ccccc2)C1 (stereo unspecified)	1.22	
CC(Nc1nc2nonc2nc1N1CCCCCC1)c1cnn(C)c1 (stereo unspecified)	0.799	
CCC1C(=O)NCCN1C(=O)CC1(c2cccc(C(F)(F)F)c2)CC(=O)N(CC)C1=O (stereo unspecified)		0.873
Cc1ccccc1CC(C1CCN(C(=O)c2ccc(N(C)C)cc2)CC1)N(C)C(=O)Cn1cccn1 (stereo unspecified)		0.825
COC1CCN(c2ccc(C(=O)NCCC3COc4ccccc4O3)cn2)CC1 (stereo unspecified)	0.856	
COc1cccc(CCC2CCCN(Cc3ncc[nH]3)C2)c1 (stereo unspecified)		0.715
CCOCC(=O)N1CCC(C2CCN(Cc3cccc(F)c3F)CC2)C1 (stereo unspecified)		0.86
Cc1nc(-c2ccncc2)ncc1C(C)NC(=O)c1cc2ccccc2[nH]1 (stereo unspecified)		0.856
CN1CCCC2(CCN(C(=O)CCCc3ccccc3)C2)C1=O (stereo unspecified)	0.945	
O=C(Nc1ccc(-c2cccc(F)c2)cc1)C1CCCN(C(=O)c2ccoc2)C1 (stereo unspecified)		0.656
O=C(C1CCCN(Cc2nc(Cc3cccc(C(F)(F)F)c3)no2)C1)N1CCOCC1 (stereo unspecified)	0.925	
COc1ccc(C2(C(=O)N3CC[C@@H](N4CCN(C)CC4)[C@H](O)C3)CCCC2)cc1	0.927	
CC(=O)c1cc(CN2CCC(n3nccc3NC(=O)C3CCCC3)CC2)cs1		0.825
COc1cccc(CN2C(=O)NC(C)(C3CCN(C(=O)c4ccccc4Cl)CC3)C2=O)c1OC (stereo unspecified)		0.816
COc1cccc(N2C(=O)CN(C(=O)COc3ccc(C)cc3)CC2C)c1 (stereo unspecified)		0.802
O=C(CCc1cccnc1)NCc1nnc2n1CCN(C(=O)/C=C/c1cc(F)ccc1F)CC2		0.876

Quoted from the listing:
Entry of `O=C(CCc1cccnc1)NCc1nnc2n1CCN(C(=O)/C=C/c1cc(F)ccc1F)CC2` under bacterial growth OD600 (polymyxin B 0.75 µg/mL): 0.876
Entry of `CN(Cc1ccccc1)Cc1cc(C(=O)NCc2cccc(Cl)c2)no1` under bacterial growth OD600 (polymyxin B 1 µg/mL): 0.89
